The text below walks through data of PubChem BioAssay AID493014 (National Center for Advancing Translational Sciences (NCATS), 2011).

As usually defined, the AC50 is the midpoint of the concentration-response curve, whichever way the signal moves.

The nature of this assay: qHTS Assay to Find Inhibitors of Chronic Active B-Cell Receptor Signaling. Conditions: ABC-DLBCL IkBa-CBG/CBR reporter, luminescence ratio (green luciferase fused to IkBa over red control in TMD8 lymphoma cells), 4 h. The method, boiled down: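 Doxycycline induced both beetle luciferases in TMD8 lymphoma cells; IKK-driven degradation limits the IkappaBalpha-fused green signal, while red luminescence normalises for cell number and nonspecific effects. Compounds tested up to 46 uM, 4 hrs.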
A general note: qHTS replaces the single test concentration by a dilution series.

Setting [1] is: measured here: CBR red luminescence, cell number.
The mark [2] stands for this setting: measured here: IkBa-CBG green luminescence.

The list shows a part of the results. Shown are side measurements of this screen, not its main read-out; they come without a call. Most of these compounds were active or inconclusive in the main read-out, so they are no random draw. The note in brackets gives the kind of curve behind each potency; many fits are weak.

For `C=CCN1C(=O)C(Cc2ccc(OC)cc2)SC1=Nc1ccc(C(=O)O)cc1` (stereo not given), the AC50 under setting [1] is 5.8 µM [falling, partial curve, poor fit]. Same read-out and setting: the same measure for `COc1ccccc1NC(=O)C(=O)N/N=C(\C)CC(=O)Nc1ccccn1`: 5.62 µM [falling, partial curve].

Regarding `Cc1ccc(C2CC(=O)Nc3c2ccc2ccccc32)cc1[N+](=O)[O-]` (stereo not given), under setting [1], the AC50 is 25.9 µM [falling, partial curve, poor fit]. Same read-out and setting: then `Cc1ccc(C)c(N2CCN(C(=O)c3ccc4c(c3)c(C)c(C)n4C)CC2)c1`, with 2.82 µM [falling, single point]. The same measure, in the same setting: the same measure for `Cn1nccc1NC(=O)NC(=O)c1c(Cl)cccc1Cl`: 7.94 µM [falling, partial curve, poor fit]. Consider `COc1ccc2sc(NC(=O)c3ccco3)nc2c1`, for which, under setting [1], the AC50 was 3.16 µM [falling, full curve]. The same measure, in the same setting: then `O=C(O)c1cc2c(s1)-c1ccccc1OC2`, with 7.08 µM [falling, partial curve]; and `COc1ccc(-n2nnnc2CNC(=O)c2ccc(S(=O)(=O)N3CCOCC3)cc2)cc1`, with 2.59 µM [rising, partial curve, poor fit]. On the same count and under the same terms, then `O=C(Nc1ccc(Cl)c(S(=O)(=O)N2CCOCC2)c1)c1ccc(OCC2CCCO2)cc1` (stereo not given), with 1.26 µM [falling, full curve, poor fit]; and `Cc1cc(C)nc(SCc2csc(-c3ccccc3)n2)n1`, with 0.82 µM [rising, full curve, poor fit]. On the same count and under the same terms, the same measure for `Cc1ccc(C(=O)Nc2nc3ccccc3[nH]2)cc1`: 1 µM [falling, full curve, poor fit]; for `O=C(NCc1cccnc1)Nc1cc(Cl)cc(Cl)c1`: 35.5 µM [falling, partial curve, poor fit]. Turning to `CSc1nc2cc3c(cc2n1C(=O)c1ccc(C)cc1)OCCO3`, under setting [1], the AC50 is 11.2 µM [falling, partial curve, poor fit]. For `Cc1ccccc1-c1nc(S(=O)(=O)c2ccc(Br)cc2)c(NCc2cccnc2)o1`, the AC50 under setting [1] is 13 µM [falling, partial curve, poor fit]. As for `O=C(CN1CCN(S(=O)(=O)c2ccc(Br)cc2)CC1)Nc1ccc(F)cc1F`, under setting [1], the AC50 is 18.4 µM [falling, partial curve]. Consider `O=c1/c(=C\c2ccc3c(c2)OCO3)sc2n1CCCN=2`, for which the AC50 under setting [1] is 17.8 µM [falling, partial curve].

For the compound `O=C(C(=O)N1CCN(c2cccc(Cl)c2)CC1)c1c[nH]c2ccccc12`, under setting [1], the AC50 was 2.24 µM [falling, full curve]. Still for that read-out and setting: then `Cc1ccc(S(=O)(=O)CCc2nc3ccccc3s2)cc1`, with 29.1 µM [rising, single point]. In the case of `CCN1C(=O)[C@@H]2[C@@H](c3ccc(-c4ccc(Cl)c(Cl)c4)c(OC)c3)N3CCC[C@@]3(C(=O)OC)[C@@H]2C1=O`, the AC50 under setting [1] was 8.2 µM [falling, partial curve]. In the case of `CCCCCC(=O)c1c(C)[nH]c(C(=O)OCC)c1C`, the AC50 runs as follows: under setting [1], 16.4 µM [rising, partial curve]; under setting [2], 18.4 µM [falling, single point]. Regarding `Cn1c(=O)n(Cc2ccccc2)c(=O)c2c1nc1n2CCCN1CCc1ccccc1`, the AC50 under setting [1] was 25.9 µM [falling, single point]. Still for that read-out and setting: then `C=C(C)C1(O)OC(=O)C=C1OC` (stereo not given), with 7.94 µM [falling, partial curve, poor fit]. As to `Cn1c(-c2ccc(-c3ccccc3)cc2)c[nH]c1=S`, the AC50 under setting [1] is 5.62 µM [rising, full curve].

As for `CCN(CC)S(=O)(=O)c1cc(NC(=O)Cn2ncc(Cl)c(Cl)c2=O)ccc1C`, the AC50 under setting [1] was 8.91 µM [falling, partial curve, poor fit]. Same read-out and setting: then `CCCn1c(=O)c(C(=O)NCc2ccccc2Cl)c(O)c2ccccc21`, with 2.51 µM [rising, full curve, poor fit]; and `CC(CCc1ccccc1)NC(=O)COC(=O)c1cc(NS(=O)(=O)c2ccc(Cl)c([N+](=O)[O-])c2)ccc1O` (stereo not given), with 16.4 µM [falling, partial curve, poor fit]. Regarding `O=C(N/N=C/c1cccc(OC2CSC2)c1)c1ccccc1O`, the AC50 under setting [1] was 2.24 µM [falling, full curve]. Turning to `CCOC(=O)C1CCN(S(=O)(=O)c2ccc(Cl)cc2OC)CC1`, the AC50 under setting [1] was 29.1 µM [rising, single point].

For `CSc1ccc(S(=O)(=O)NCc2ccc(C)cc2)cc1`, the AC50 under setting [1] is 1.64 µM [rising, partial curve, poor fit]. As to `O=C(O)c1ccc(NCc2nc3ccccc3n2Cc2ccccc2F)cc1`, the AC50 under setting [1] is 10 µM [falling, partial curve].

On to `Cc1ccc(NC(=O)c2cccc3cccnc23)cc1`, for which, under setting [1], the AC50 was 14.1 µM [falling, partial curve, poor fit]. For `COc1cc(C(=O)CSc2nncn2C)cc(OC)c1OC`, the concentration at half-maximal activity (AC50) under setting [1] was 0.82 µM [rising, full curve, poor fit]. As to `Cc1nc2n(n1)C(c1ccccc1)C1=C(CC(c3ccco3)CC1=O)N2` (stereo not given), the AC50 under setting [1] was 9.2 µM [falling, partial curve, poor fit]. `CCOc1ccc(OCC)c(NC(=O)CSc2nnc(-c3cccnc3)o2)c1`: the AC50 under setting [1] is 32.6 µM [rising, partial curve, poor fit] and the AC50 under setting [2] was 6.51 µM [rising, partial curve, poor fit]. Consider `N#C/C(=C\c1ccc2c(c1)OCCO2)C(=O)NC1CCCCC1`, for which the AC50 under setting [1] is 0.259 µM [falling, full curve, poor fit]. As for `COC(=O)c1sc(NC(=O)COc2ccccc2C)nc1C`, the AC50 under setting [1] was 22.4 µM [falling, partial curve, poor fit].

Regarding `CCOc1ccc(S(=O)(=O)N(CC(=O)Nc2cc(C)on2)Cc2ccccc2Cl)cc1`, under setting [1], the AC50 was 25.1 µM [falling, single point]. Same read-out and setting: the same measure for `CN1CCN(C(=O)c2ccc(Oc3ccc([N+](=O)[O-])cc3)cc2)CC1`: 5.62 µM [falling, single point]. On to `O=C(c1ccco1)N1CCCC(Nc2ccc3c(c2)OCCO3)C1` (stereo not given), for which the AC50 under setting [1] is 35.5 µM [falling, single point].

`CCOc1ccccc1Nc1nnc(SCC(=O)Nc2nc(-c3ccc(OC)cc3)cs2)s1`: the AC50 under setting [1] was 35.5 µM [falling, partial curve, poor fit]. For the compound `COc1cc(C(C[N+](=O)[O-])c2c(N)n(C)c(=O)n(C)c2=O)ccc1O` (stereo not given), the AC50 is 8.91 µM [falling, partial curve, poor fit] under setting [1] and 35.5 µM [falling, partial curve, poor fit] under setting [2].

Turning to `COc1ccc(C(CNC(=O)c2cccc(S(=O)(=O)N3CCc4ccccc43)c2)N(C)C)cc1` (stereo not given), the AC50 under setting [1] is 29.1 µM [falling, partial curve, poor fit]. Consider `Cc1ccnc(NC(=O)c2cccs2)c1`, for which the AC50 under setting [1] is 3.16 µM [falling, partial curve, poor fit].

`Cn1c(C(=O)N2CCN(Cc3ccc4c(c3)OCO4)CC2)cc2c(=O)n(C)c3ccccc3c21`: the AC50 under setting [1] was 0.517 µM [rising, partial curve, poor fit]. Still for that read-out and setting: then `Cc1nc2cc3sc(C)nc3cc2s1`, with 2.82 µM [falling, partial curve, poor fit]; and `Cc1oc2c(O)c(O)ccc2c(=O)c1-c1ccccc1`, with 6.31 µM [rising, partial curve, poor fit]; and `O=C1[C@@H]2[C@H]3CC[C@H](C3)[C@@H]2C(=O)N1O`, with 14.1 µM [rising, single point]. Same read-out and setting: the same measure for `COc1ccc(N2CCN(C(=O)c3ccc(F)cc3)CC2)c([N+](=O)[O-])c1`: 35.5 µM [falling, single point]. Turning to `COCCn1c(SCC(=O)Nc2sccc2C(N)=O)nc2cc(Cl)ccc2c1=O`, under setting [1], the AC50 was 4.47 µM [falling, partial curve, poor fit].

Turning to `c1ccc(-c2nccnc2-c2ccccc2)cc1`, the AC50 under setting [1] was 35.5 µM [falling, single point]. The same measure, in the same setting: then `COc1ccc(C(=O)Nn2c(SCC(=O)NC3CCCC3)nc3ccccc3c2=O)cc1`, with 4.47 µM [falling, partial curve]; and `CCC(C)NC(=O)Cn1cc2c(n1)CCC(C)C2` (stereo not given), with 8.2 µM [rising, partial curve, poor fit]; and `O=C(NC1CCCCC1)c1cc(-c2cccs2)on1`, with 0.501 µM [falling, full curve]. Still for that read-out and setting: then `O=C(/C=C/c1cccc(F)c1)Nc1cc(S(=O)(=O)N2CCOCC2)ccc1N1CCCC1`, with 25.9 µM [rising, single point]; and `COc1ccc(C(=O)n2nc(-c3ccco3)nc2N)cc1`, with 4.61 µM [falling, partial curve, poor fit]. Still for that read-out and setting: then `Cn1c2ccccc2c2cc(C(=O)OCC(=O)N3CC(=O)Nc4ccccc43)sc21`, with 11.2 µM [falling, partial curve]; and `O=C(NNC(=O)c1ccccc1F)c1cccs1`, with 35.5 µM [falling, single point].

Consider `CC(C)CCN1C(=O)c2ccc(C(=O)Nc3ccccc3C(=O)O)cc2C1=O`, for which the AC50 was 14.1 µM [falling, partial curve, poor fit] under setting [1] and 20 µM [rising, partial curve, poor fit] under setting [2]. Consider `CCOC(=O)[C@H]1[C@H]2COc3cc(OC)ccc3[C@@H]2N2C(=O)N(c3ccc(Br)cc3)C(=O)[C@@]12C`, for which the AC50 under setting [1] is 2.82 µM [rising, partial curve, poor fit]. Still for that read-out and setting: then `C[C@H](CO)N1C[C@H](C)[C@@H](CN(C)S(=O)(=O)c2ccc(F)cc2)Oc2ccc(NS(=O)(=O)c3ccccc3)cc2C1=O`, with 0.58 µM [rising, full curve, poor fit].

With `O=C(N/N=C/c1ccc(OC(=O)c2ccco2)cc1)c1ccccn1`, under setting [1], the AC50 is 11.2 µM [falling, partial curve, poor fit].
